Measurements: PubChem BioAssay AID330 (DTP/NCI, 2004)
The list shows only some results of the screen, not a fair sample: it gathers tests that were run many times, whatever their T/C, doses with no T/C, and many T/C values between a quarter and a half above the control. Further doses and runs are listed elsewhere. T/C is the treated group as % of the vehicle group. Some entries give survivors of the animals treated and no T/C: the source files T/C as zero there, which appears to mark a toxic dose or a test without result, not a measured value. Some survivor counts are full or nearly so, which does not show that the dose was tolerated: survival well below the control is almost never listed, so the zero probably covers shortened survival too. Survivors were counted at the toxicity check, usually on the fifth day, unless a day is given; later deaths do not show. Schedules are NCI's codes, read here as Q, the interval in days (D) or hours (H), X, the number of doses. Some entries were tested several times; their values stand side by side, smallest first. Where survival is the endpoint, this PubChem deposit counts one and a half times the control or more as active, and values a quarter to a half above the control carry no call in these data; other NCI protocols may use other cut-offs. Some T/C values carry the count of animals alive at the toxicity check (mostly the fifth day); where none is given, no animal had died by that day.

Test system: P388 leukemia ip, CD2F1 mice, survival T/C
Experiment: NCI In Vivo Anticancer Drug Screen. Data for tumor model P388 Leukemia (intraperitoneal) in CD2F1 (CDF1) mice
Details: T/C endpoint: median survival time, higher T/C = longer survival
[1] = dose: 200.0 mg/kg/injection, schedule: Q01DX009 (ip), vehicle: saline with Tween-80
[2] = dose: 200.0 mg/kg/injection, schedule: Q01DX005 (ip), vehicle: Klucel (hydroxypropylcellulose) (HPC)
[3] = dose: 200.0 mg/kg/injection, schedule: Q01DX005 (ip), vehicle: saline with Tween-80

Compound: CN(C)c1ccc(C(=C2C=CC(=[N+](C)C)C=C2)c2ccc(N(C)C)cc2)cc1 (tested in a mixture with another compound)
- T/C (dose: 1.25 mg/kg/injection, schedule: Q01DX009 (ip), vehicle: saline with Tween-80): 134 % of control
- T/C (dose: 2.5 mg/kg/injection, schedule: Q01DX009 (ip), vehicle: saline with Tween-80): 138 % of control
- survivor count (dose: 5.0 mg/kg/injection, schedule: Q01DX009 (ip), vehicle: saline with Tween-80): 0 of 6 and 6 of 6
- survivor count (dose: 10.0 mg/kg/injection, schedule: Q01DX009 (ip), vehicle: saline with Tween-80): 1 of 6
- survivor count (dose: 20.0 mg/kg/injection, schedule: Q01DX009 (ip), vehicle: saline with Tween-80): 0 of 6
- survivor count (dose: 40.0 mg/kg/injection, schedule: Q01DX009 (ip), vehicle: saline with Tween-80): 0 of 6
- survivor count (dose: 80.0 mg/kg/injection, schedule: Q01DX009 (ip), vehicle: saline with Tween-80): 0 of 6

Compound: CC(C)(C)c1ccc(-c2cc3nc(C(F)(F)F)cc(=O)n3[nH]2)cc1
- survivor count (dose: 30.0 mg/kg/injection, schedule: Q01DX005 (ip), vehicle: saline with Tween-80): 6 of 6
- survivor count (dose: 60.0 mg/kg/injection, schedule: Q01DX005 (ip), vehicle: saline with Tween-80): 6 of 6
- survivor count (dose: 120.0 mg/kg/injection, schedule: Q01DX005 (ip), vehicle: saline with Tween-80): 6 of 6

Compound: C[C@@H]1C[C@@H]2OC(=O)[C@]3(C)[C@H]2[C@@H](OC3(C)O)[C@]2(C)C(=O)C=C[C@@H]12 (stereo partly drawn)
- T/C (dose: 34.0 mg/kg/injection, schedule: Q01DX009 (ip), vehicle: Klucel (hydroxypropylcellulose) (HPC)): 128 and 135 % of control
- T/C (dose: 68.0 mg/kg/injection, schedule: Q01DX009 (ip), vehicle: Klucel (hydroxypropylcellulose) (HPC)): 135 % of control

Compound: CCCC(NC)C(CC)CN (stereo not drawn)
- survivor count [1]: 1 of 6
- survivor count (dose: 400.0 mg/kg/injection, schedule: Q01DX009 (ip), vehicle: saline with Tween-80): 0 of 6

Compound: O=C1/C(=C/c2ccccc2)CSC/C1=C\c1ccccc1
- survivor count [2]: 6 of 6

Compound: COc1ccc(CC2(C(=O)O)NCCS2)cc1OC (stereo not drawn)
- survivor count (dose: 400.0 mg/kg/injection, schedule: Q04DX003 (ip), vehicle: Klucel (hydroxypropylcellulose) (HPC)): 3 of 6

Compound: O=C(O)CCCC(=O)NC1CC2c3ccccc3C1c1ccccc12 (stereo not drawn)
- survivor count (dose: 300.0 mg/kg/injection, schedule: Q01DX009 (ip), vehicle: saline with Tween-80): 5 of 6

Compound: COc1ccc2c(c1)OC(C)(C)C(c1ccccc1)C2c1ccc(O)c([N+](=O)[O-])c1 (stereo not drawn)
- survivor count [2]: 4 of 6

Compound: N=C(N)c1ccc2oc(/C=C/C=C/C=C/c3cc4cc(C(=N)N)ccc4o3)cc2c1
- T/C (dose: 200.0 mg/kg/injection, schedule: Q04DX003 (ip), vehicle: saline): 130 % of control
- T/C (dose: 400.0 mg/kg/injection, schedule: Q04DX003 (ip), vehicle: saline): 137 % of control [5 of 6 alive]

Compound: C=CCc1cccc2cc(C(=O)OCCCN(CC)CC)c(=O)oc12
- survivor count [3]: 3 of 5

Compound: O=C(NC(CO)(CO)CO)c1cc(N2CC2)c([N+](=O)[O-])cc1[N+](=O)[O-]
- T/C (dose: 50.0 mg/kg/injection, schedule: Q01DX009 (ip), vehicle: saline with Tween-80): 131 % of control
- T/C (dose: 100.0 mg/kg/injection, schedule: Q01DX009 (ip), vehicle: saline with Tween-80): 131 % of control
- T/C [1]: 142 % of control [5 of 6 alive]

Compound: O=C(Nc1c(Cl)cc(Cl)cc1Cl)ON=C1CCCCC1
- survivor count (dose: 240.0 mg/kg/injection, schedule: Q01DX005 (ip), vehicle: saline with Tween-80): 2 of 6

Compound: O=[C-]c1ccccc1[C-]=O.[I][Ni+2][I]
- survivor count (dose: 50.0 mg/kg/injection, schedule: Q01DX005 (ip), vehicle: saline with Tween-80): 6 of 6
- survivor count (dose: 100.0 mg/kg/injection, schedule: Q01DX005 (ip), vehicle: saline with Tween-80): 0 of 6
- survivor count [3]: 0 of 6

Compound: COc1ccccc1C1OC2=C(Nc3ccc(Cl)cc3N2)C1=O (stereo not drawn)
- survivor count (dose: 60.0 mg/kg/injection, schedule: Q01DX005 (ip), vehicle: Klucel (hydroxypropylcellulose) (HPC)): 6 of 6
- survivor count (dose: 120.0 mg/kg/injection, schedule: Q01DX005 (ip), vehicle: Klucel (hydroxypropylcellulose) (HPC)): 6 of 6
- survivor count (dose: 240.0 mg/kg/injection, schedule: Q01DX005 (ip), vehicle: Klucel (hydroxypropylcellulose) (HPC)): 4 of 6

Compound: Cc1ccc2c(NCCCCCCCCNc3c4ccccc4nc4c(C)c(C)ccc34)c3ccccc3nc2c1C
- T/C (dose: 0.63 mg/kg/injection, schedule: Q01DX009 (ip), vehicle: other): 137 % of control
- T/C (dose: 1.25 mg/kg/injection, schedule: Q01DX009 (ip), vehicle: other): 134 % of control
- T/C (dose: 2.5 mg/kg/injection, schedule: Q01DX009 (ip), vehicle: other): 141 and 148 % of control
- T/C (dose: 5.0 mg/kg/injection, schedule: Q01DX009 (ip), vehicle: other): 145 and 147 % of control
- survivor count (dose: 10.0 mg/kg/injection, schedule: Q01DX009 (ip), vehicle: other): 5 of 6
- survivor count (dose: 20.0 mg/kg/injection, schedule: Q01DX009 (ip), vehicle: other): 0 of 6
- survivor count (dose: 40.0 mg/kg/injection, schedule: Q01DX009 (ip), vehicle: other): 0 of 6
